Laboratory results taken from the supplement of paper PMC12067093, “Discovery and optimisation of a covalent ligand for TRIM25 and its application to targeted protein ubiquitination” (Chemical Science, 2025).
The other results are listed elsewhere or left out.

Amino acid sequences for entries named in this document (tags omitted). A change or cut given only in a name is not applied to a line headed by its entry.
UniProt Q5BJF6: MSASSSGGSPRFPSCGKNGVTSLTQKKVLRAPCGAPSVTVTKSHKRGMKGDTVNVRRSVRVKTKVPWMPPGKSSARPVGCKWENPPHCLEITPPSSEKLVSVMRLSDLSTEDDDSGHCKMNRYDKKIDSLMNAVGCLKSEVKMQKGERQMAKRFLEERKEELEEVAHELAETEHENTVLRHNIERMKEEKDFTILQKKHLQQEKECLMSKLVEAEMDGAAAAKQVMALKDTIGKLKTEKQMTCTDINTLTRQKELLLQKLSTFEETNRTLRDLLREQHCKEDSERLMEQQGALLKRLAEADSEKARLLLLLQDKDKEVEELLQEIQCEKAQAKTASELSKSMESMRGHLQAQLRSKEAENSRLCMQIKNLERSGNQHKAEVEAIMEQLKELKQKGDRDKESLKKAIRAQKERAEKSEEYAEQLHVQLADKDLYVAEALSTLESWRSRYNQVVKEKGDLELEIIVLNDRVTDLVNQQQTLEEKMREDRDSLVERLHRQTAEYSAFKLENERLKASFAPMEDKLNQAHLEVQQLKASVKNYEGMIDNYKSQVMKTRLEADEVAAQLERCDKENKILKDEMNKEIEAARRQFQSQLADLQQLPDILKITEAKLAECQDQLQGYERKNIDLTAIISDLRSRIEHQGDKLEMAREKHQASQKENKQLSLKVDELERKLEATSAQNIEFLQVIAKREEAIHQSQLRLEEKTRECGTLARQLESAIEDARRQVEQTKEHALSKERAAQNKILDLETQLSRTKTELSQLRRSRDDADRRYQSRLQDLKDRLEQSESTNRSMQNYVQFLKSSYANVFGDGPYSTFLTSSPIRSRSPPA
UniProt O15381: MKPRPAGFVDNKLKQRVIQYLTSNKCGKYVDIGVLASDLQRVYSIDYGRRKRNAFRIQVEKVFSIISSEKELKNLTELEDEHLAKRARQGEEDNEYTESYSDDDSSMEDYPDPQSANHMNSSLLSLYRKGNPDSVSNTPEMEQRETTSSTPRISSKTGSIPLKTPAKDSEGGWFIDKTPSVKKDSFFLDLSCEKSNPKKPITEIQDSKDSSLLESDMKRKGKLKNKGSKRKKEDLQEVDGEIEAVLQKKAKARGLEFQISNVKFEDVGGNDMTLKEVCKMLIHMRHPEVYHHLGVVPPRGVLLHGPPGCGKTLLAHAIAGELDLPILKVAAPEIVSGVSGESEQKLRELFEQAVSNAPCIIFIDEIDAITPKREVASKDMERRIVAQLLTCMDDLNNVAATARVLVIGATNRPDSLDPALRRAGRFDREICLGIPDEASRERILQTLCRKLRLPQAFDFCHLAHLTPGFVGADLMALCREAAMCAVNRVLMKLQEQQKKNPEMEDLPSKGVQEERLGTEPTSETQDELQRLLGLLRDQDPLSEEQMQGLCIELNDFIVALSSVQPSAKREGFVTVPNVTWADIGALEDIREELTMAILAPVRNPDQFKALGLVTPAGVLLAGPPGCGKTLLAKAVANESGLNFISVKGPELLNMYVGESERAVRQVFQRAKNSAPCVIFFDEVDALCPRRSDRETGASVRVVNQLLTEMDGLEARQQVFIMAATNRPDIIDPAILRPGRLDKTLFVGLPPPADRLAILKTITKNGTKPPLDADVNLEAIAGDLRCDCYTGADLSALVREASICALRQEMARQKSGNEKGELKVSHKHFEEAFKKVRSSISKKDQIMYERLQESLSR
UniProt Q14980: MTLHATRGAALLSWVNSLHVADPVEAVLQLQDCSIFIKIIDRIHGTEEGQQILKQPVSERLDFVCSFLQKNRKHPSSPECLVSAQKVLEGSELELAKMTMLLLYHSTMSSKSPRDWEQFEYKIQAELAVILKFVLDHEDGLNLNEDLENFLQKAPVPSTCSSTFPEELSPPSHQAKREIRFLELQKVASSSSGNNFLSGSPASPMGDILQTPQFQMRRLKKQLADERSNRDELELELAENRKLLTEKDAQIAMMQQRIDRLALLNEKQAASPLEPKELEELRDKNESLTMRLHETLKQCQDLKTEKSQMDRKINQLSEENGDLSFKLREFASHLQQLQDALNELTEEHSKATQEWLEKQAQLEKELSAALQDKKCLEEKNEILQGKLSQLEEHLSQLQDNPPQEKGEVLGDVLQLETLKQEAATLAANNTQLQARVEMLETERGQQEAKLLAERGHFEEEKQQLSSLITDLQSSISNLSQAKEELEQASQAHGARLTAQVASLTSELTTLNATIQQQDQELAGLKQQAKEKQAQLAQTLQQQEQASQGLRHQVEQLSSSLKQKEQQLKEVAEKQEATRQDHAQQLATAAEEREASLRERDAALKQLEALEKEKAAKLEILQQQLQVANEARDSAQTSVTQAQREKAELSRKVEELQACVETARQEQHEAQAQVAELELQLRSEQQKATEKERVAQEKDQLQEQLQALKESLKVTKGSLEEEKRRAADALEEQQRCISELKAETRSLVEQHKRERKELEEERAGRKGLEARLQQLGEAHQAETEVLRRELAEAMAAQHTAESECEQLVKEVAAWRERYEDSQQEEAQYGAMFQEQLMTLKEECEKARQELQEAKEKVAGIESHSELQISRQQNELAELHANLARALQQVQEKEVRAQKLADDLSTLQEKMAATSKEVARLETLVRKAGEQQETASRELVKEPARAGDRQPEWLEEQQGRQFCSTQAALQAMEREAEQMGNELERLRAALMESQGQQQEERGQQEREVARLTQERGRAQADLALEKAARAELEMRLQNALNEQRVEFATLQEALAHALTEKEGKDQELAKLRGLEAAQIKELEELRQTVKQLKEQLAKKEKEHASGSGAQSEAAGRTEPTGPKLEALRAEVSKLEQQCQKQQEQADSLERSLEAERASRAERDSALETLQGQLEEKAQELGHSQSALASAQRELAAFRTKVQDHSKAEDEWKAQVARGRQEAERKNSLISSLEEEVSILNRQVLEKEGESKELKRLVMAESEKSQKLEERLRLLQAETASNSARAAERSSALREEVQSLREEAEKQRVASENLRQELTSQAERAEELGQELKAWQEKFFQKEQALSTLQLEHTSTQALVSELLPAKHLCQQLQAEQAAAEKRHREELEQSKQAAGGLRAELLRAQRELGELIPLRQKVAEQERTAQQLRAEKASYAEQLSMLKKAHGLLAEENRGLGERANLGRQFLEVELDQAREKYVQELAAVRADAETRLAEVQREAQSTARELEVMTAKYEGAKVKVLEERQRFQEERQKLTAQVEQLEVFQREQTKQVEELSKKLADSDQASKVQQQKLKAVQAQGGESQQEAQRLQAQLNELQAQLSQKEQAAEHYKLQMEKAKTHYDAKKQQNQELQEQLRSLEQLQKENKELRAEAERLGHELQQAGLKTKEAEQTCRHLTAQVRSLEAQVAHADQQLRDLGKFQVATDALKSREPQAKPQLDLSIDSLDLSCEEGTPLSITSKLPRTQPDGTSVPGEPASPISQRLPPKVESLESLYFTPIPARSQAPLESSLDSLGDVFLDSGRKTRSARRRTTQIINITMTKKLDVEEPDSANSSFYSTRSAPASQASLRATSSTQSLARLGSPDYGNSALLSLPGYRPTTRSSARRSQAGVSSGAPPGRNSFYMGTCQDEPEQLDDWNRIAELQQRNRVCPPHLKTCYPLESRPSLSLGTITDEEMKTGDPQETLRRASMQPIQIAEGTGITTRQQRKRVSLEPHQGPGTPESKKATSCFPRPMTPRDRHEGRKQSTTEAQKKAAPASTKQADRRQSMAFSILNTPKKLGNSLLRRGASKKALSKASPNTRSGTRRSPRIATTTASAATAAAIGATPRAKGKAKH
UniProt Q9UKX7: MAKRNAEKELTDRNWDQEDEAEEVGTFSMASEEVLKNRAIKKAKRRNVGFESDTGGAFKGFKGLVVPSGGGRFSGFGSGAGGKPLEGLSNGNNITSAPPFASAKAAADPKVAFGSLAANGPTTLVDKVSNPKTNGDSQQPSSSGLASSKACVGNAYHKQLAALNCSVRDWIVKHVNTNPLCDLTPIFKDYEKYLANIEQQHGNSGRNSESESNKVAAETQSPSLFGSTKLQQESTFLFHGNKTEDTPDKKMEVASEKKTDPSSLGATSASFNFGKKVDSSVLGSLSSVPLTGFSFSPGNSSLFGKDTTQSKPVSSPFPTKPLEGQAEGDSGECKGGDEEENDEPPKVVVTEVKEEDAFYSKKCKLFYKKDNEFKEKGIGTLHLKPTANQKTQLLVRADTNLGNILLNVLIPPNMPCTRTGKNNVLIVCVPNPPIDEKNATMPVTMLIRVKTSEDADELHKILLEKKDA
UniProt Q96RS6: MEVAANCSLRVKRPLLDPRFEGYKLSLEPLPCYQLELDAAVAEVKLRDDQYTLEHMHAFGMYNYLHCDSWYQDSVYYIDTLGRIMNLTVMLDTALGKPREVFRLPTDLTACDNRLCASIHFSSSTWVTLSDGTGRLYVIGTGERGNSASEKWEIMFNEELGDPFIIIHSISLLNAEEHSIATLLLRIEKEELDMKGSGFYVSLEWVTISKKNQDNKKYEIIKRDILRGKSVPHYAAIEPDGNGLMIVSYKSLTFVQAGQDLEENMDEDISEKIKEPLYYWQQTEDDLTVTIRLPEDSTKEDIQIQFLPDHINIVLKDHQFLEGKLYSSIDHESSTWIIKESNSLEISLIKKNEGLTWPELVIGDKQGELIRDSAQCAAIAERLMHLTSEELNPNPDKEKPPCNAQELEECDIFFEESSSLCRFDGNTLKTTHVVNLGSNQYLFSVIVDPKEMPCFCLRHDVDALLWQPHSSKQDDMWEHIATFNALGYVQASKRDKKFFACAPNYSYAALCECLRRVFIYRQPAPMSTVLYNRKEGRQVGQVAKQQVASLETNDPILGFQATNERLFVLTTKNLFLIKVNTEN
UniProt Q02218: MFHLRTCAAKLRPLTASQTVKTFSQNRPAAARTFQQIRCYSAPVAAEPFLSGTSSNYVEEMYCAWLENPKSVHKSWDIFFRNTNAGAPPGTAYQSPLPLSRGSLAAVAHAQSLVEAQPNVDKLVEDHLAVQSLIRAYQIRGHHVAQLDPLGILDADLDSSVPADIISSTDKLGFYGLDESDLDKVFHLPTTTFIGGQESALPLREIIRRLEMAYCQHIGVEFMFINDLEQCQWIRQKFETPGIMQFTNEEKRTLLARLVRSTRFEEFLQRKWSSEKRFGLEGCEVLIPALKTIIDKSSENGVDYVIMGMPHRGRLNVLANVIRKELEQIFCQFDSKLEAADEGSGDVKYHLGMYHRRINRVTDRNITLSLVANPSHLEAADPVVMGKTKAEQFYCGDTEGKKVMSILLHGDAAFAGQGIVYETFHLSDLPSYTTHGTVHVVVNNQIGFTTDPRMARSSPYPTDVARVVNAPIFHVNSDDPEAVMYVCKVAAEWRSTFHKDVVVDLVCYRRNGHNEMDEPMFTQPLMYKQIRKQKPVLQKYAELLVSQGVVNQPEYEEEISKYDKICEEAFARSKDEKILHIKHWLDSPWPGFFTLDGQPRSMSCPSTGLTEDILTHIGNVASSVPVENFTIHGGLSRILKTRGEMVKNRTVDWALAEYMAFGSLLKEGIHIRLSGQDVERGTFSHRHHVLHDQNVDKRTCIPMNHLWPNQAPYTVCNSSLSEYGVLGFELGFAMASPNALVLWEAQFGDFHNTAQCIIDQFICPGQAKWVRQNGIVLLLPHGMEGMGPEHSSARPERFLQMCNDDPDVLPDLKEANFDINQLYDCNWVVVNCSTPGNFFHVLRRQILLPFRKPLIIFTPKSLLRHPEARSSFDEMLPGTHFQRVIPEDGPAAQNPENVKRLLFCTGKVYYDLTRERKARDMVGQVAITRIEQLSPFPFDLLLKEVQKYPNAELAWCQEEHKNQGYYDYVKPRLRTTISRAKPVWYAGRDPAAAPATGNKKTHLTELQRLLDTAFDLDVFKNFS
UniProt P49757: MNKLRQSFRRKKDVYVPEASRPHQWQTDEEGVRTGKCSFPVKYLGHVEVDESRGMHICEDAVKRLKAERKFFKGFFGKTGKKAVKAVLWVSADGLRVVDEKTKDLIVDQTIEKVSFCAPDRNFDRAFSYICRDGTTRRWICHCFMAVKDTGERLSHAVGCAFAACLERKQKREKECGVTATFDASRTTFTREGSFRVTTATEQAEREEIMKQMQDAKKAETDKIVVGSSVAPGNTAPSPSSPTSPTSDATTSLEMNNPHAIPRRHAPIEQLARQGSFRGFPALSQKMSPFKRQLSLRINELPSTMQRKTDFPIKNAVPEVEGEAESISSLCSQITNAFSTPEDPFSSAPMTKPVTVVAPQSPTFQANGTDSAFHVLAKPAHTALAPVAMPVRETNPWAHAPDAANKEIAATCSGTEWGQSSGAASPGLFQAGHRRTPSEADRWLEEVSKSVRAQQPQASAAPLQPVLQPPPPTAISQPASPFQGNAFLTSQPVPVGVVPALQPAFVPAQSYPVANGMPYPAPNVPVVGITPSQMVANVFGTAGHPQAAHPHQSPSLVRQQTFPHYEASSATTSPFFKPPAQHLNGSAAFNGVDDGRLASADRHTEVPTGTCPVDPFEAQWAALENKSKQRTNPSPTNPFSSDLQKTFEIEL

compound: Cc1cc(ccc1-c1ccccc1)C(=O)N1CCCN(CC1)C(=O)CCl [compound 10]; assay: probe-labelled cysteine peptide fold change vs DMSO (competition) (log2 fold change); higher = less target engagement (more negative = stronger competition); settings: 50 µM; THP-1; incubation time: 4 h
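Note: competitive profiling in live THP-1 cells: cysteine peptides tagged with an iodoacetamide desthiobiotin (IA-DTB) probe, intensity after compound treatment relative to DMSO-treated cells.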

Target	probe-labelled cysteine peptide fold change
ODF2_Q5BJF6_708_TRECGTLAR (UniProt Q5BJF6)	0.396
NVL_O15381_309_GVLLHGPPGCGK (UniProt O15381)	0.0738
OBSL1_O75147_738_VVLTCELSR (UniProt O75147)	0.341
NUMA1_Q14980_1367_HLCQQLQAEQAAAEKR (UniProt Q14980)	-0.287
NUP205_Q92621_1486_DACDGHEIGR (UniProt Q92621)	0.227
NUP50_Q9UKX7_151_ACVGNAYHK (UniProt Q9UKX7)	-1.01
NUB1_Q9Y5A7_400_ACDGNVDHAATHITNRR (UniProt Q9Y5A7)	-0.398
OGFR_Q9NZT2_330_TCGPEHSK (UniProt Q9NZT2)	-0.198
NUDCD1_Q96RS6_32_LSLEPLPCYQLELDAAVAEVK (UniProt Q96RS6)	0.242
OGDH_Q02218_283_FGLEGCEVLIPALK (UniProt Q02218)	0.0883
NUMB_P49757_176_ECGVTATFDASR (UniProt P49757)	-0.0541
OGA_O60502_618_FEEMCGLVMGMFTR (UniProt O60502)	0.0614
NUP43_Q8NFH3_222_VPLHCVDRHPNQQHVVATGGQDGMLSIWDVR (UniProt Q8NFH3)	-0.351
NUMA1_Q14980_658_KVEELQACVETAR (UniProt Q14980)	-0.0926
NTPCR_Q9BSD7_184_NHLLPDIVTCVQSSR (UniProt Q9BSD7)	-0.0301
OGFOD3_Q6PK18_90_FIEVPCSEDYDSHR (UniProt Q6PK18)	0.234
NUDCD1_Q96RS6_111_LPTDLTACDNR (UniProt Q96RS6)	0.0177
NUDT16L1_Q9BRJ7_171_CQLLFALK (UniProt Q9BRJ7)	0.00939
OARD1_Q9Y530_24_GDLFACPK (UniProt Q9Y530)	-0.025
NUBPL_Q8TB37_244_VHVPVLGLVQNMSVFQCPK (UniProt Q8TB37)	0.0845

2 records picked at random from the list so far, as already listed:
Target	probe-labelled cysteine peptide fold change
NUP50_Q9UKX7_151_ACVGNAYHK (UniProt Q9UKX7)	-1.01
NUDT16L1_Q9BRJ7_171_CQLLFALK (UniProt Q9BRJ7)	0.00939

Later entries

Target	probe-labelled cysteine peptide fold change
OPA1_O60313_551_NLSLAVSDCFWK (UniProt O60313)	0.135
NUP155_O75694_917_ISNQVDLSNVCAQYR (UniProt O75694)	0.0618
NUP160_Q12769_1131_QGNCYLAALNCLR (UniProt Q12769)	-0.0856
OGDH_Q02218_283_RFGLEGCEVLIPALK (UniProt Q02218)	0.167
NXF1_Q9UBU9_143_CSVPFTPIEFHYENTR (UniProt Q9UBU9)	-0.108
NUMB_P49757_58_GMHICEDAVKR (UniProt P49757)	-0.352
NUDT9_Q9BW91_347_DAHWSEDSEADCHAL (UniProt Q9BW91)	-0.189
OGG1_O15527_140_LLRQDPIECLFSFICSSNNNIAR (UniProt O15527)	-0.114
ODF2_Q5BJF6_708_ECGTLAR (UniProt Q5BJF6)	0.468
NUP43_Q8NFH3_222_QQGNEPSQILSLTGDRVPLHCVDR (UniProt Q8NFH3)	0.0145
OGDH_Q02218_487_VVNAPIFHVNSDDPEAVMYVCK (UniProt Q02218)	-0.108
NUP188_Q5SRE5_95_FLGLDEEQSVQLLQCYLQEDYR (UniProt Q5SRE5)	0.285
OAS2_P29728_210_HWHQQCQK (UniProt P29728)	0.204
NUBP2_Q9Y5Y2_177_RELTFCR (UniProt Q9Y5Y2)	0.0238
ODF2_Q5BJF6_327_DKEVEELLQEIQCEK (UniProt Q5BJF6)	-0.368
OCRL_Q01968_611_LNDSQYCK (UniProt Q01968)	0.00174
NVL_O15381_687_NSAPCVIFFDEVDALCPR (UniProt O15381)	0.172
NUP98_P52948_1027_ADTSQEICSPR (UniProt P52948)	0.217
NUMA1_Q14980_80_HPSSPECLVSAQK (UniProt Q14980)	-0.146
NUP205_Q92621_237_QSLAESLFAWACQSPLGKEDTLLLIGHLER (UniProt Q92621)	0.344
